Experimental data published in article PMC1526750.
No constants are given. Whether binding was seen depends on the method and setting. Binding seen in cells or lysates may run through a third protein. Some entries that bind do so weakly or less than the wild type.

The chains behind the UniProt entries cited, without tags or fusion partners. Where a name states a change or a piece, a line headed by the entry shows the natural chain unless it says otherwise. A line that says so, or that is headed by a name, gives the form on record, which may keep a tag or linker.
UniProt Q9H165: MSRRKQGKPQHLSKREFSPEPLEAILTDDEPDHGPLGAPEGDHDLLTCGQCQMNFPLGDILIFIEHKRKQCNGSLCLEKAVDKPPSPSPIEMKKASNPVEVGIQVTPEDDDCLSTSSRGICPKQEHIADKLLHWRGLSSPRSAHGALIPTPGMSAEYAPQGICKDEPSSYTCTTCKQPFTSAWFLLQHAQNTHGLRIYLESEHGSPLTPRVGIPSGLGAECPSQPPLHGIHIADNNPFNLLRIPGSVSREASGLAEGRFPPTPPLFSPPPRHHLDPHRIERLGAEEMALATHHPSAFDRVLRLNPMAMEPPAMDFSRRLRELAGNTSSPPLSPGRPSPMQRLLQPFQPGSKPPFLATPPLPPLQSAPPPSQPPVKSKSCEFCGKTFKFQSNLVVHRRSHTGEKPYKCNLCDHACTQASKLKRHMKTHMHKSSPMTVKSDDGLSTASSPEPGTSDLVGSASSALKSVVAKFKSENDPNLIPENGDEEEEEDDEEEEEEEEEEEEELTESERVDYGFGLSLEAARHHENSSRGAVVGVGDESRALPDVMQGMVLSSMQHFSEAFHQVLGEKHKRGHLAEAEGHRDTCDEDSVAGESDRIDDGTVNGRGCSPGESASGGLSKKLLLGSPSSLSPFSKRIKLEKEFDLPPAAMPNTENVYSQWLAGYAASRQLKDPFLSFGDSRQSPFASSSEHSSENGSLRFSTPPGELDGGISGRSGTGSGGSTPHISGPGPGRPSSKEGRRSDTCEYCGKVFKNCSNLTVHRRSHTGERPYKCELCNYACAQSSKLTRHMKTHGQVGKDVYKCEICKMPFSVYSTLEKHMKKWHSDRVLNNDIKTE
HA-BCL11A-L, in vitro translated, 35S-labeled (Q9H165-2, form named): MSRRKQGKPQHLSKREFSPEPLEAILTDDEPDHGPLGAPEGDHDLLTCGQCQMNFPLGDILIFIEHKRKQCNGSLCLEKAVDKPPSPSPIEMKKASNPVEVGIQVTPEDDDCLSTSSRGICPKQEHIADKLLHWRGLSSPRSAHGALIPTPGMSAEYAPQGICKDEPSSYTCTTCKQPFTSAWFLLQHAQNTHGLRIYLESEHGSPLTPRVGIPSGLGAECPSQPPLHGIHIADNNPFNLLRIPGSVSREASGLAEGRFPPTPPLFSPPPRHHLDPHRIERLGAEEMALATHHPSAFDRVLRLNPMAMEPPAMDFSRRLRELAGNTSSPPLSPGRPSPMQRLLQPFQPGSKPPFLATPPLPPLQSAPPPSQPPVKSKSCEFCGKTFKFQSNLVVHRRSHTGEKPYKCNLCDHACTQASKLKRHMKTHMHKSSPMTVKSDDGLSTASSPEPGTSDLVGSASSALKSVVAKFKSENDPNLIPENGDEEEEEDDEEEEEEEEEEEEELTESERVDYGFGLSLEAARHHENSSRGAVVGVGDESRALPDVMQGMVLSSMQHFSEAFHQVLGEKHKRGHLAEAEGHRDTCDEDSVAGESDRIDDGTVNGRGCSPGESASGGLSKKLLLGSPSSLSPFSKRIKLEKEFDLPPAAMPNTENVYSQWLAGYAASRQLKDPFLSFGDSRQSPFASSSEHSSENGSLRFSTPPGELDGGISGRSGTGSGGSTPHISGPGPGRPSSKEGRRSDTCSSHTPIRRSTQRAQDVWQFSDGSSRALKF

Tests used:
[1] = molecular target: Gal4DBD-BCL11A-L, in vitro translated, unlabeled (human) (UniProt Q9H165); test: co-IP; in vitro translated unlabeled Gal4DBD-BCL11A isoforms and 35S-labeled HA-BCL11A isoforms; anti-Gal4-DBD antibody, IP buffer (50 mM Tris-Cl pH 7.5, 150 mM NaCl, 5 mM MgCl2, 1 mM EDTA, 0.25% NP-40, 1 mM DTT), 1 hr at 4°C, protein A agarose
[2] = molecular target: Gal4DBD-BCL11A-XL, in vitro translated, unlabeled (human) (UniProt Q9H165); test: as above

Substance | binding [1] | binding [2]
HA-BCL11A-L, in vitro translated, 35S-labeled (from UniProt Q9H165-2 1-773) | binds | binds
HA-BCL11A-XL, in vitro translated, 35S-labeled (from UniProt Q9H165-1 1-835) |  | binds
